This is an account of results in PMC11809377.

Protein sequences, listed by entry. Tags and fused reporters are not part of them. Residues count along the entry.
UniProt Q02248: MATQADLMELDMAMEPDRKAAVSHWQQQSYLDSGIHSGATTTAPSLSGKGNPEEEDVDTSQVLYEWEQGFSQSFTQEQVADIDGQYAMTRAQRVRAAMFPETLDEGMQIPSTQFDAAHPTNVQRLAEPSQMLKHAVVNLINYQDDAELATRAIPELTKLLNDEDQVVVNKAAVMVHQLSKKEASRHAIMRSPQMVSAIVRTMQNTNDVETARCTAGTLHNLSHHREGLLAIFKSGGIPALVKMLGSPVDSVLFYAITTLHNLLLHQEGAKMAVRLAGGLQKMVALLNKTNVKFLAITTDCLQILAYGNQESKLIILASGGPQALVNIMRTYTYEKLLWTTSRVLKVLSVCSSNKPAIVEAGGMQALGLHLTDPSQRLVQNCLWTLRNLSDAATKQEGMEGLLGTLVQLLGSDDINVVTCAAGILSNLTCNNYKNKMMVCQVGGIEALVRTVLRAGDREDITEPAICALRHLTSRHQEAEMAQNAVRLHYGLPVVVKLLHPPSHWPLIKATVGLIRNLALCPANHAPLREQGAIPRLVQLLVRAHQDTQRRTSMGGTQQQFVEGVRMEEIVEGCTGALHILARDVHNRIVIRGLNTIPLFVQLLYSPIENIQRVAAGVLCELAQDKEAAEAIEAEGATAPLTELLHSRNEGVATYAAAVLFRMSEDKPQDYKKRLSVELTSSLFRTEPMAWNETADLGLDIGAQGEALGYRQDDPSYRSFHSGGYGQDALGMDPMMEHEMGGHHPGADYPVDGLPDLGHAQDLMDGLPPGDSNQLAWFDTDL
UniProt P15116, residues 160-906: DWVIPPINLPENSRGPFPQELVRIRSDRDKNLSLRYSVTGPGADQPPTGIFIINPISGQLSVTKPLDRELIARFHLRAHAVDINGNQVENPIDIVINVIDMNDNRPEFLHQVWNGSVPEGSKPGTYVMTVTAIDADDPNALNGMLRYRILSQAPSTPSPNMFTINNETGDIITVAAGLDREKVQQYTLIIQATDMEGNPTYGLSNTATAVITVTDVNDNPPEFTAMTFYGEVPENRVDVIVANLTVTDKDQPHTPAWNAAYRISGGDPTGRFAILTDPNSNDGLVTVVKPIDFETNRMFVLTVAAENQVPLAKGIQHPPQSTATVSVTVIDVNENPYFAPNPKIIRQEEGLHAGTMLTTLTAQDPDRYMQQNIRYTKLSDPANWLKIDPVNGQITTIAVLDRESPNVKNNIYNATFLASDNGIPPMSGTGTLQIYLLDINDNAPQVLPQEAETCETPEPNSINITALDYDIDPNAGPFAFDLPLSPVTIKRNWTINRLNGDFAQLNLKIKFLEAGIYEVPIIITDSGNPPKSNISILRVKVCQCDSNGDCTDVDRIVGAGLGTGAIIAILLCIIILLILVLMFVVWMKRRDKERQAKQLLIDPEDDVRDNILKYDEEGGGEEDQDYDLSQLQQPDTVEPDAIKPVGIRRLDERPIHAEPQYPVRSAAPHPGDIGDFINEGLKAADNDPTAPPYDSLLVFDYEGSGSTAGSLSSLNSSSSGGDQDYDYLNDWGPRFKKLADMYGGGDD
UniProt Q8VIM5: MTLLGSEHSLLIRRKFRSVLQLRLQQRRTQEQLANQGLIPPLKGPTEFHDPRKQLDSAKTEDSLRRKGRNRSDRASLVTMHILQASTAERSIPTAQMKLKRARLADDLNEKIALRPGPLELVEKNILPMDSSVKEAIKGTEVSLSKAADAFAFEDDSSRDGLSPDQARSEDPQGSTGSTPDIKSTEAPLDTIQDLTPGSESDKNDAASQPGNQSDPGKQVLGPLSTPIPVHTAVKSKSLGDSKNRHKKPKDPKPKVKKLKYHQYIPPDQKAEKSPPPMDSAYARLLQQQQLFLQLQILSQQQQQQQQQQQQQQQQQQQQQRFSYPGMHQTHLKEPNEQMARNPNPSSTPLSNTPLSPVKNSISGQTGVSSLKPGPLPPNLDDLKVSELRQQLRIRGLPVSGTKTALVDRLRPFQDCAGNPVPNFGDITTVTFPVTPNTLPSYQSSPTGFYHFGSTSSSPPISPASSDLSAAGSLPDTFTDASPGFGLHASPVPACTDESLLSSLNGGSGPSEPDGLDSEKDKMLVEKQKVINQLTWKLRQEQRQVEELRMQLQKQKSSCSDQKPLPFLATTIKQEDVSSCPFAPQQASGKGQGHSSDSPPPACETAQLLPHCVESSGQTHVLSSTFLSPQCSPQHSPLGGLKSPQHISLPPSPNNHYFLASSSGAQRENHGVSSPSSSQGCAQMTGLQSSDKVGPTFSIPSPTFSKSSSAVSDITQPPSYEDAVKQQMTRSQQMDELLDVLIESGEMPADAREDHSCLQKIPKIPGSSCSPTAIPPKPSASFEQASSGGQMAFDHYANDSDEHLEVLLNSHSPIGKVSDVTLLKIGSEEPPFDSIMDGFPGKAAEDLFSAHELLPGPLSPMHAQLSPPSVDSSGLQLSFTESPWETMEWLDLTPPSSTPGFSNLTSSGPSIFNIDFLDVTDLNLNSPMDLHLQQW

The target in experiment [1] is T1, serum response factor (mouse (endogenous in primary mouse VSMCs and carotid arteries)) (UniProt Q9JM73).
T1 sequence: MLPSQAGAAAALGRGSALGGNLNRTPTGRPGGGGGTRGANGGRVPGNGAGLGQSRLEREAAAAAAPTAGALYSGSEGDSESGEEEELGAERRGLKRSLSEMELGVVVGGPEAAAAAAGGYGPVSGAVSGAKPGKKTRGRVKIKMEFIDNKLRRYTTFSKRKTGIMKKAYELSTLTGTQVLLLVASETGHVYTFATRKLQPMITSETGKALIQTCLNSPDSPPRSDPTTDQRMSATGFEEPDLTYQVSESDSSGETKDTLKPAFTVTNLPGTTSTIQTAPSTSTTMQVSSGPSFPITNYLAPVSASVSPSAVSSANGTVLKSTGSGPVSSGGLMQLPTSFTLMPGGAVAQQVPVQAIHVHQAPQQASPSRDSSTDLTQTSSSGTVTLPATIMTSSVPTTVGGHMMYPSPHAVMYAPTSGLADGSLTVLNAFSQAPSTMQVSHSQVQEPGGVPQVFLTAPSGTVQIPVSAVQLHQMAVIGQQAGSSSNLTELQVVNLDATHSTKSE
In words: co-IP; tissue lysates of injured carotid arteries of control and SMC‐specific Ttk knockout mice; NP40 lysis buffer, protein A&G agarose beads; immunoblotting. For orientation: Immunoblotting shows a protein as a band on a membrane.

For experiment [2], the target named is T1, serum response factor (mouse (endogenous in primary mouse VSMCs and carotid arteries)). The experiment is described as follows: co-IP; lysates (NP40 lysis buffer) of VSMCs, endogenous proteins; immunoprecipitated with anti‐β‐catenin or anti‐SRF antibodies, protein A&G agarose beads; also in cells with empty vector or LV‐TTK, p120‐wt or p120‐T310A, with or without 40 nM BC2059.

The target in experiment [3] is β‐catenin (mouse (endogenous in primary mouse VSMCs and carotid arteries)) (UniProt Q02248). Described as above.
The target in experiment [4] is N‐cadherin (mouse (endogenous in primary mouse VSMCs and carotid arteries)) (UniProt P15116). In words: co-IP; tissue lysates of injured carotid arteries of control and SMC‐specific Ttk knockout mice; NP40 lysis buffer, protein A&G agarose beads; immunoblotting.
Experiment [5] shares this target. The experiment is described as follows: co-IP; lysates (NP40 lysis buffer) of VSMCs co‐transfected with empty vector or LV‐TTK and p120‐wt or p120‐T310A; immunoprecipitated with anti‐N‐cadherin antibodies, protein A&G agarose beads; immunoblotting.
Experiment [6] has as its target T2, Hemagglutinin (HA)‐tagged TTK protein kinase (UniProt P35761).
T2 sequence: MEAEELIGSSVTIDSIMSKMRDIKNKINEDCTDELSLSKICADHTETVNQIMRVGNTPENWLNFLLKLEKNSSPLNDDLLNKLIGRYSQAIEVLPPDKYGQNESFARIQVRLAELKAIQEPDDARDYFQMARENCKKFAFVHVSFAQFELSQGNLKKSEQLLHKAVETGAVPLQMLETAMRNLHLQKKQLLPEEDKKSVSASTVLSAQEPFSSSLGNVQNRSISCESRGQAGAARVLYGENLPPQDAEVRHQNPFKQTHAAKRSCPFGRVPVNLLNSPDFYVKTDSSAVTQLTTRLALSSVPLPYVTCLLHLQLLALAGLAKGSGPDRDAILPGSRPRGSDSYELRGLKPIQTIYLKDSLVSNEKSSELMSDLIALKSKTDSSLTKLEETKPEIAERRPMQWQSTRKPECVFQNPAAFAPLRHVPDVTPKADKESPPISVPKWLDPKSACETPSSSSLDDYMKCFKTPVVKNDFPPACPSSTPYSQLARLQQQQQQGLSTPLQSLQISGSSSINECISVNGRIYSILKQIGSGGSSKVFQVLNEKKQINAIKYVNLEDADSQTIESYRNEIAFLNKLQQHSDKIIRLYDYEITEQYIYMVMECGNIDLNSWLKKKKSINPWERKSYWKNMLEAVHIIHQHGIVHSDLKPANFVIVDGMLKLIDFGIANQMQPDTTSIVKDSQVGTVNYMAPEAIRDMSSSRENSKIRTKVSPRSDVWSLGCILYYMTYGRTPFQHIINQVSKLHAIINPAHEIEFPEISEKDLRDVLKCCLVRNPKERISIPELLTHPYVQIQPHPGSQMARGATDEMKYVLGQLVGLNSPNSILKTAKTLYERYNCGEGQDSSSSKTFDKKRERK
The experiment is described as follows: co-IP; lysates (NP40 lysis buffer) of VSMCs transfected with the HA‐tagged TTK lentivirus; immunoprecipitated with anti‐HA, anti‐p120 or anti‐Irf2bpl antibodies overnight at 4 °C, protein A&G agarose beads; immunoblotting.

These are yes or no findings as the source states them, for the method shown. In cells and extracts the contact can be indirect. Some entries that bind do so weakly or less than the wild type. For some of these results: Sequences can lack the tags named with a protein.

For the molecule myocardin (from UniProt Q8VIM5 1-935), the binding entry in experiment [1], in experiment [2] and in experiment [3] was “binds” in each case.
For β‐catenin (from UniProt Q02248 1-781), the binding entry in experiment [4] and in experiment [5] was “binds” throughout.

B1: p120‐catenin (protein, UniProt P30999 1-938)
chain: MDDSEVESTASILASVKEQEAQFEKLTRALEEERRHVSAQLERVRVSPQDANSLMANGTLTRRHQNGRFVGDADLERQKFSDLKLNGPQDHNHLLYSTIPRMQEPGQIVETYTEEDPEGAMSVVSVETTDDGTTRRTETTVKKVVKTMTTRTVQPVPMGPDGLPVDASAVSNNYIQTLGRDFRKNGNGGPGPYVGQAGTATLPRNFHYPPDGYGRHYEDGYPGGSDNYGSLSRVTRIEERYRPSMEGYRAPSRQDVYGPQPQVRVGGSSVDLHRFHPEPYGLEDDQRSMGYDDLDYGMMSDYGTARRTGTPSDPRRRLRSYEDMIGEEVPPDQYYWAPLAQHERGSLASLDSLRKGMPPPSNWRQPELPEVIAMLGFRLDAVKSNAAAYLQHLCYRNDKVKTDVRKLKGIPILVGLLDHPKKEVHLGACGALKNISFGRDQDNKIAIKNCDGVPALVRLLRKARDMDLTEVITGTLWNLSSHDSIKMEIVDHALHALTDEVIIPHSGWEREPNEDCKPRHIEWESVLTNTAGCLRNVSSERSEARRKLRECDGLVDALIFIVQAEIGQKDSDSKLVENCVCLLRNLSYQVHREIPQAERYQEALPTVANSTGPHAASCFGAKKGKDEWFSRGKKPTEDPANDTVDFPKRTSPARGYELLFQPEVVRIYISLLKESKTPAILEASAGAIQNLCAGRWTYGRYIRSALRQEKALSAIAELLTSEHERVVKAASGALRNLAVDARNKELIGKHAIPNLVKNLPGGQQNSSWNFSEDTVVSILNTINEVIAENLEAAKKLRETQGIEKLVLINKSGNRSEKEVRAAALVLQTIWGYKELRKPLEKEGWKKSDFQVNLNNASRSQSSHSYDDSTLPLIDRNQKSDKKPDREEIPMSNMGSNTKSLDNNYSTLNERGDHNRTLDRSGDLGDMEPLKGAPLMQKI
Turning to B1, in experiment [6], the binding entry is recorded as “binds”.

B2: serum response factor (protein, UniProt Q9JM73 1-504)
chain: T1 sequence
Consider B2, for which the binding result in experiment [3] is on record as “binds”.
